Data: patent publication US6462055B2, “Alpha-methylbenzyl-containing thiourea inhibitors of herpes viruses containing a phenylenediamine group” (Wyeth, priority 1998, dated 2002)
Converted amounts (≈) assume the structure as drawn. At least one structure is not confirmed: it was looked up by name or label, or the drawing left a doubt.

Each compound was assayed on HSV-1 (assay: HSV Antiviral (ELISA) Assay in Vero cells). Details: HSV-1, Vero cells.
Format: cell-based, herpes simplex virus type 1
Method: Vero cells (ATCC #CCL-81) are plated on 96-well tissue culture plates at 3.5×10^4 cells per 100 μl tissue culture DMEM (Dulbeccos modified Eagle media) supplemented with 2% fetal bovine serum (FBS) in each well. After overnight incubation @ 37° C. (in 5% CO2) and 30 minutes prior to infection with HSV-1 (multiplicity of infection equal to 0.006), cells are either untreated, or treated with test compound (multiple concentrations) or reference standard drug control. After approximately 24 hours post-infection incubation @ 37° C. (in 5% CO2), cells are fixed for ELISA assay. The primary antibody is murine anti-HSV glycoprotein D monoclonal primary antibody and the secondary antibody is goat anti-mouse IgG linked to β-galactosidase. Thus the extent of viral replication is determined by assessing β-galactosidase activity by quantifying the generation of the 4-methyl umbelliferone fluorescent cleavage product after addition of the methyl umbelliferyl-β-D-galactoside (Sigma #M1633) substrate on a microfluorimeter (365 nm for excitation and 450 nm for emission). Antiviral activity (IC50) of the test compound is determined by comparing the flourescence obtained in absence of compound to that obtained in the presence of compound.

SMILES | IC50 (ug/ml) HSV
COc1cc(OC)c(NC(=S)Nc2ccc(NC(=O)c3cccc(NS(C)(=O)=O)c3)cc2)cc1Cl [Example 137] | 10 µg/mL (≈ 18.7 µM)
O=C(Nc1ccc(NC(=S)Nc2cccc(CO)c2)cc1)c1ccccc1F [Example 476] | 10 µg/mL (≈ 25.3 µM)
Nc1cccc(NC(=S)Nc2ccc(NC(=O)c3ccccc3F)cc2)c1 [Example 434] | 10 µg/mL (≈ 26.3 µM)
CC(NC(=S)Nc1ccc(NC(=O)c2cccc(Cl)c2)cc1)c1ccc(F)cc1 (centres unmarked) [Example 761] | 10 µg/mL (≈ 23.4 µM)
COC(=O)c1cccc(C(=O)Nc2ccc(NC(=S)Nc3cc(Cl)c(OC)cc3OC)cc2)c1 [Example 208] | 10 µg/mL (≈ 20 µM)
